# Results: PubChem BioAssay AID1794845 (National Center for Advancing Translational Sciences (NCATS), 2023)
# Chains of the proteins cited; added tags and fusions are not shown. Lines headed by an entry give the natural chain unless they say otherwise; changes in a name come on top.
# UniProt C7C422: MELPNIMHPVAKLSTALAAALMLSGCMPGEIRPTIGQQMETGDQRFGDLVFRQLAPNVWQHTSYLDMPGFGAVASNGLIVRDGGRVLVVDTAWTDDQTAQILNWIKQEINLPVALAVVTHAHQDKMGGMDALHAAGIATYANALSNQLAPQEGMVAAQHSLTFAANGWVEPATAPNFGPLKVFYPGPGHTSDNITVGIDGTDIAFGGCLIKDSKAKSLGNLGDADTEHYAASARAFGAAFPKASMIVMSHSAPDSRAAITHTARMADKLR
# The campaign covered roughly 6,900 compounds. Fewer than 10 were called active. Calls come from the whole dose curve; as a rule, active = well fitted curve in the direction sought with a large enough effect; inconclusive = small, poorly fitted or top-dose-only effect, or another doubt; inactive = no such curve, though single readings can be large or run the other way. The list shows a part of the results.
# Target: Metallo-beta-lactamase type 2 (Klebsiella pneumoniae) (UniProt C7C422)
# Assay: qHTS to identify inhibitors of the New Delhi Metallo-beta-lactamase (NDM): primary screen against the NCATS Gemini Collection; note: % of control where 0% means no effect
# Details: NDM-1 enzyme, meropenem hydrolysis, absorbance 300 nm; at 38.4 µM (top of the series) unless noted
# Procedure, shortened: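 NDM-1 at 2 nM final in 50 mM HEPES pH 7.0, 1 uM ZnSO4, 0.01% Tween20, preincubated >30 min with compound. Meropenem 50 uM final added; absorbance at 300 nm after 30 min.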
row,SMILES,activity % (negative = inhibition)
1,NS(=O)(=O)c1ccc(F)c(C(=O)NCc2noc(-c3ccco3)n2)c1,inactive: 13.8%
2,O=C1CN(Cc2ccc(Cl)cc2)CCN1c1ccc(Cl)nn1,inactive: 0.941% [at 57.5 µM]
3,Cc1ccc(N2C(=S)N[C@H]3[C@@H](O)[C@H](O)C[C@@H](C(=O)N4CCCCC4)[C@H]32)cc1,inactive: 59.6% [at 57.5 µM]
4,COc1cc2c(cc1CN1CCCC(O)(CN(C)C)C1)OCCCO2 (stereo not drawn),inactive: 21.9%
5,CSCC[C@@H]1NC(=O)c2cc(NC(=O)c3ccc(-n4cnnn4)cc3)ccc2NC1=O,inactive: 10.2%
6,Cc1nc(C(=O)N2CC[C@H](NC(=O)c3cnccn3)C[C@H]2C(=O)N[C@@H](Cc2cccs2)C(N)=O)cs1,inactive: 0.0804%
7,O=C(N[C@@H]1CN(C(=O)c2[nH]nc3c2CCc2ccccc2-3)CC[C@@H]1CO)c1ccccc1,inactive: 3.28%
8,O=C(NCCCn1ccnn1)c1cccc(S(=O)(=O)N2CCOCC2)c1,inactive: 12.3%
9,COC(=O)N1CCC2(CC1)C(=O)NN=C2c1ccncc1,inactive: 3.59% [at 57.5 µM]
10,COc1ccc(-c2cc(C(=O)NCc3c(C)cc(C)[nH]c3=O)c3c(c2)N(C)CCO3)cn1,inactive: 10.6% [at 57.5 µM]
11,CCN(CC)c1cc(CCC(=O)NCCc2ccccn2)ccn1,inactive: 8.43%
12,COCCN1CCCC2(CCN(c3ccc4ccccc4n3)C2)C1=O (stereo not drawn),inactive: 8.55%
13,O=C(CCc1ccc2c(c1)CNCCO2)NCC1CC1,inactive: 5.25%
14,COc1ccccc1-n1nc(Cc2ccccc2)n(CC(=O)NC(C)C2CC2)c1=O (stereo not drawn),inactive: -0.0357%
15,CC(C)Oc1ccc(C2(C(=O)N3C[C@@H](C)[C@](O)(C4CC4)C3)CCCC2)cc1,inactive: 8.52%
16,O=C(C1CC(=O)N(C2CC2)C1)N1CCC(Oc2cccnc2)CC1 (stereo not drawn),inactive: 0.493%
17,COc1ccc(CC(=O)NC2CCN(c3nnc4cccc(C)n34)CC2)cc1,inactive: 0.816%
18,CCOc1ccc(C2CC(=O)Nc3c2c(C)nn3CC(=O)O)c(OCC)c1C (stereo not drawn),inactive: 0.112%
19,CC(C)NC(=O)C[C@@H]1O[C@H](CNCc2ccc(F)cc2)[C@@H](O)[C@H]1O,inactive: 3.44% [at 57.5 µM]
20,NC(=O)C1(c2nc(C3CCOC3)nn2-c2cccc3cccnc23)CC1 (stereo not drawn),inactive: 1.04%
21,CC(C)[C@@H]1CN(C(=O)c2scc3c2CCCC3)C[C@H]1NS(C)(=O)=O,inactive: 0.0991%
22,COCCC(=O)N1CCC2(CCC2NC(=O)COC)CC1 (stereo not drawn),inactive: -5.44%
23,CNC(=O)[C@@H]1CN(C(=O)c2cc(C)n(CCOC)c2C)C[C@H]1COC,inactive: 22.4%
24,CN1CC(=O)N(c2ccccc2F)Cc2c1ncnc2N1CCN(c2ncccn2)CC1,inactive: 1.86%
25,CC(=O)N1CCC(C(=O)NCc2cccnc2N(C)Cc2ccccc2)CC1,inactive: 15.2%
26,CC(C)(C)CC(=O)NC[C@H]1O[C@H](Cc2cc(-c3ccc(F)cc3)on2)CC[C@@H]1O,inactive: 0.544% [at 57.5 µM]
27,O=C(CCc1ccccc1)NCC(=O)N1CCN(c2ccccn2)CC1,inactive: 13.2%

# Looked up by structure from above, two records:
row,SMILES,activity % (negative = inhibition)
16,O=C(C1CC(=O)N(C2CC2)C1)N1CCC(Oc2cccnc2)CC1 (stereo not drawn),inactive: 0.493%
24,CN1CC(=O)N(c2ccccc2F)Cc2c1ncnc2N1CCN(c2ncccn2)CC1,inactive: 1.86%

# 3 structures out of the list, ordered by heavy-atom count, smallest number first.
row,SMILES,activity % (negative = inhibition)
15,CC(C)Oc1ccc(C2(C(=O)N3C[C@@H](C)[C@](O)(C4CC4)C3)CCCC2)cc1,inactive: 8.52%
17,COc1ccc(CC(=O)NC2CCN(c3nnc4cccc(C)n34)CC2)cc1,inactive: 0.816%
7,O=C(N[C@@H]1CN(C(=O)c2[nH]nc3c2CCc2ccccc2-3)CC[C@@H]1CO)c1ccccc1,inactive: 3.28%

# Going on with the list:

row,SMILES,activity % (negative = inhibition)
1,CN(C)C[C@@H]1CN(S(C)(=O)=O)C[C@H]1NC(=O)c1ccc2[nH]ccc2c1,inactive: 5.2%
2,CCn1c(C2CCCN(S(=O)(=O)c3cccc4nonc34)C2)nn(C)c1=O (stereo not drawn),inactive: -0.373%
3,COc1cccc(CC(=O)N[C@@H]2C[C@H](Cn3cc(-c4cccnc4)nn3)[C@@H](O)[C@H]2O)c1,inactive: 0.332%
4,COc1ccc(CN2C[C@@H](CO)[C@H](c3ccccn3)C2)cc1C,inactive: 11.6%
5,COc1ccc(CCN2CCCC(CN(C)Cc3cnc[nH]3)C2)cc1 (stereo not drawn),inactive: 5.24%
6,CNC(=O)c1cn2c(n1)CN([S+](C)(=O)[O-])CC2,inactive: -0.329% [at 57.5 µM]
7,COCC1CN(C(C)=O)CC12CCN(C(=O)c1nn(C)c3ccccc13)CC2 (stereo not drawn),inactive: 1.31%
8,COc1cc(-c2onc(C)c2C(=O)NCCCOC(C)C)cc(OC)c1OC,inactive: -0.808%
9,CNC(=O)c1cc(C2CC2)nc2onc(C3CCN(C(=O)c4ccc(Cl)nc4)C3)c12 (stereo not drawn),inactive: 14.8%
10,O=C(c1ccccc1OC(F)(F)F)N1CCC2(CC1)CC(O)CCO2 (stereo not drawn),inactive: 5.28%
11,CC1(C)CN(C(=O)COc2ccccc2)CC(=O)N(Cc2ccccc2)C1,inactive: -1.11%
12,CCC(C(=O)N(C)Cc1ccc(OC)c2ncccc12)n1cccn1 (stereo not drawn),inactive: -0.226%
13,CN(CC1Cc2ccccc2O1)C(=O)c1coc(COc2ccc3c(c2)OCO3)n1 (stereo not drawn),inactive: -0.441%
14,O=C(NCc1cccs1)c1cc(C2CC2)nc2onc(C3CCCNC3)c12 (stereo not drawn),inactive: 4.14%
15,CCn1nc(C)cc1S(=O)(=O)N[C@H]1[C@H]2CCO[C@H]2[C@@H]1N1CCCCC1,inactive: -5.56%
16,CN1C(=O)C(CC(=O)N2CCC(C#N)CC2)(Cc2ccccc2)c2ccccc21 (stereo not drawn),inactive: -0.488%
17,C=CCNC(=O)N[C@H]1[C@H](O)[C@@H](NCCOC)[C@@H]2OC[C@H]1O2,inactive: 12.2% [at 57.5 µM]
18,Cn1cc(C(=O)N2CCC(N(Cc3ccccc3)C3CCOCC3)CC2)cn1,inactive: -2.23%
19,C=CCC1(CO)CCCN(C(=O)CCCn2nc(C)cc2C)C1 (stereo not drawn),inactive: 1.16%
20,CC(c1ccc(-c2cc(N3CCN(C)CC3)nc(N)n2)cc1)N1CCOCC1 (stereo not drawn),inactive: 9.83%
21,NC(=O)CN1C(=O)CO[C@H]2CN(Cc3ccc(Cl)cc3)C[C@H]21,inactive: 7.04% [at 57.5 µM]
22,CCNC(=O)N1C[C@@H](F)[C@@H](OCc2nc3ccc(F)cc3[nH]2)C1,inactive: 6.65% [at 57.5 µM]
23,CCCS(=O)(=O)N1CCCC(Cn2c(C)nc3cccnc32)C1 (stereo not drawn),inactive: 12.3%
24,CCN1CCN(Cc2cc3ccc(C)cc3nc2-c2ccc(OC)c(OC)c2)CC1,inactive: 4.02%
25,CC(C)CNC(=O)c1ccc2nnc(C(C)(C)C)n2c1,inactive: 36.1% [at 57.5 µM]
26,COCCNC(=O)CC[C@]12CC[C@](C)(O)C[C@H]1C(C)(C)C[C@@H]2NS(=O)(=O)c1ccc(C)cc1,inactive: 24.6%
